Test results as given in publication doi:10.1101/2022.03.29.486178.
Where two headings read alike, the source gives them in different places. These are yes or no findings as the source states them, for the method shown. Binding seen in cells or lysates may run through a third protein. Some entries that bind do so weakly or less than the wild type. For some of these results: Where a sequence is shown, tags or fusion partners need not be part of it.

Sequences of proteins named here, by UniProt entry; tags and fusion partners are left off.
UniProt P0CAP2: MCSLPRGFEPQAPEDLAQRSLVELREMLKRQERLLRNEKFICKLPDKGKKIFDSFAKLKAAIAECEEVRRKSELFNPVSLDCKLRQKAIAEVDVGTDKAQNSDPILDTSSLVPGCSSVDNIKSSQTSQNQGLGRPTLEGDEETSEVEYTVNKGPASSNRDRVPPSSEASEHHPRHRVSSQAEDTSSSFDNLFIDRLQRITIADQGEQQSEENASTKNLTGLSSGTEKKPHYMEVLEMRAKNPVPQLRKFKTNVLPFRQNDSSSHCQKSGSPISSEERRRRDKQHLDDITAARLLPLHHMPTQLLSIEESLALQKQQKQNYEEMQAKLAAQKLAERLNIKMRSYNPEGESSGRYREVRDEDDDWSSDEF
UniProt O14980: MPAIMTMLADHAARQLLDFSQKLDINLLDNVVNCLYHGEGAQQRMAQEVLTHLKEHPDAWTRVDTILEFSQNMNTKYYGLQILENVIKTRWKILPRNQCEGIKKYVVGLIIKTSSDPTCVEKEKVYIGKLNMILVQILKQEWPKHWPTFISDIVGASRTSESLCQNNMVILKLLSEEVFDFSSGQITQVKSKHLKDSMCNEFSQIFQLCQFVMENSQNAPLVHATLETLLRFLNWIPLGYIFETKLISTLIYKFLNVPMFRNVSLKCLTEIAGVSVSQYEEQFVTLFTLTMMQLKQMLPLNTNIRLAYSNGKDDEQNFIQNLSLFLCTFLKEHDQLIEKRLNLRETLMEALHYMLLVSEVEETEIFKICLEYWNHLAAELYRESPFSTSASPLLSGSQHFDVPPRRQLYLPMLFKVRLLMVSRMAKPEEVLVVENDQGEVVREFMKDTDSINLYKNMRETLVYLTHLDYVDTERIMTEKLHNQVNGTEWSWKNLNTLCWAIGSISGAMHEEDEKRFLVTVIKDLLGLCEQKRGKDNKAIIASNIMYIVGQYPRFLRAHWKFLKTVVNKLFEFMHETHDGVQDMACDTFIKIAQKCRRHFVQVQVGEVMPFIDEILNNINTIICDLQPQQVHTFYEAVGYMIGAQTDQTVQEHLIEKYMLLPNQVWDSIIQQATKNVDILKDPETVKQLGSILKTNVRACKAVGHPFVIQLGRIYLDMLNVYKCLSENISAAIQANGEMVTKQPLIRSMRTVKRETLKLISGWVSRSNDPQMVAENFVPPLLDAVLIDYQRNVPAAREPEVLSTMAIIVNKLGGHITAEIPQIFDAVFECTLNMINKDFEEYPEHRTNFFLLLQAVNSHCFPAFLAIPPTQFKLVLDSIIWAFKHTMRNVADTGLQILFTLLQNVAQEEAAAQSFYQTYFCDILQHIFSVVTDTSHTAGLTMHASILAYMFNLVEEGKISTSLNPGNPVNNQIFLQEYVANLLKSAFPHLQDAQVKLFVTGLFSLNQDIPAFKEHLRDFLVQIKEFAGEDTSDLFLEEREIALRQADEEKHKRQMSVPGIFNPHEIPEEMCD
UniProt Q15648: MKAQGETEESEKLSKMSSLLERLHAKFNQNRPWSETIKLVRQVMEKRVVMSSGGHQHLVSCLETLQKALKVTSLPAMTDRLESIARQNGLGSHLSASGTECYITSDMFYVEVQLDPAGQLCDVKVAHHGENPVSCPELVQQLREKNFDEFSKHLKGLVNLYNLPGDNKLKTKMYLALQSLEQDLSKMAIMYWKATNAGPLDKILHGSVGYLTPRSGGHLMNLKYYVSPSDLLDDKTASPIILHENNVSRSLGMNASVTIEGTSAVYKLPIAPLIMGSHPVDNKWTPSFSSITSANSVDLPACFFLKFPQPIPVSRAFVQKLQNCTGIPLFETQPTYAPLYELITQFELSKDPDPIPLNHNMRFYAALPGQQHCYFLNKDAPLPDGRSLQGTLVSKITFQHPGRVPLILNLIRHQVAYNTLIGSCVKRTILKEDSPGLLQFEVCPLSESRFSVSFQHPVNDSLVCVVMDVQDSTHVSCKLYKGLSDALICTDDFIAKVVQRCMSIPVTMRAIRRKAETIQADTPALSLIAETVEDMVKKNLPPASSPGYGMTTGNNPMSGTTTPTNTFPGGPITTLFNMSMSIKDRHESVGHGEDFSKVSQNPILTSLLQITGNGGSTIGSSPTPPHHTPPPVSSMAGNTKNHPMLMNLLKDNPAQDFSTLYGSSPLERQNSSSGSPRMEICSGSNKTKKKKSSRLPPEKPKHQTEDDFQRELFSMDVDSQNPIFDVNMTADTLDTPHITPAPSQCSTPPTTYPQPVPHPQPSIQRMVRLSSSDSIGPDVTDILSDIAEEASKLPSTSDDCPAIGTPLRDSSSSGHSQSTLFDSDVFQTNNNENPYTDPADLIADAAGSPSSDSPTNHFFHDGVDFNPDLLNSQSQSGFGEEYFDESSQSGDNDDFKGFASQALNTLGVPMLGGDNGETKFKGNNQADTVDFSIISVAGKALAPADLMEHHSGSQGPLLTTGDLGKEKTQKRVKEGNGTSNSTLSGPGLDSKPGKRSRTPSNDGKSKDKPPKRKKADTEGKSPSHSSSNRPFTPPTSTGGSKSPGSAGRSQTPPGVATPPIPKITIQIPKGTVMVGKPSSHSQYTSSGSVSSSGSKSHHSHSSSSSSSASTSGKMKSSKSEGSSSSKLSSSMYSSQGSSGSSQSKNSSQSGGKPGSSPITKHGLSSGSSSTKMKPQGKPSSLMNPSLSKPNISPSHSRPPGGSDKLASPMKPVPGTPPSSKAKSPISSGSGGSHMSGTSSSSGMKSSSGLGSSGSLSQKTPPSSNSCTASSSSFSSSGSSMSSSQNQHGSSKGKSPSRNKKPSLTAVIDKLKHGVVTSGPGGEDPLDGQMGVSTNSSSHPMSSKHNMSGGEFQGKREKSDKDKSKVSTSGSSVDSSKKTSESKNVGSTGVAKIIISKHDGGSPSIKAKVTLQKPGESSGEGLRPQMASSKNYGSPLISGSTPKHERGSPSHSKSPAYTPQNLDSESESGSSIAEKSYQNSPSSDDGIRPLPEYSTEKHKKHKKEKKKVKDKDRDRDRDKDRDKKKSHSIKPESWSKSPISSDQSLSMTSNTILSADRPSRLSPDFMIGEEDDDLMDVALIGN

Experiments:
[1] = target: GDOWN1-Venus-Flag, wild type (human) (UniProt P0CAP2); assay: co-IP
[2] = target: human GDOWN1 (POLR2M), full length, wild type, BiFC fusion (human) (UniProt P0CAP2); assay: split reporter
[3] = target: human GDOWN1 (POLR2M), full length, wild type, BiFC fusion (human) (UniProt P0CAP2); assay: split reporter; remark: listed apart in the source

Molecule | binding [3] | also measured
CRM1, endogenous (from UniProt O14980 1-1071) |  | binding [1]: binds
MED1, BiFC fusion (from UniProt Q15648 1-1581) |  | binding [2]: no binding
VN-CRM1, BiFC fusion (from UniProt O14980 1-1071) |  | binding [2]: binds
RAE1, BiFC fusion (protein, UniProt P78406 1-368) MSLFGTTSGFGTSGTSMFGSATTDNHNPMKDIEVTSSPDDSIGCLSFSPPTLPGNFLIAGSWANDVRCWEVQDSGQTIPKAQQMHTGPVLDVCWSDDGSKVFTASCDKTAKMWDLSSNQAIQIAQHDAPVKTIHWIKAPNYSCVMTGSWDKTLKFWDTRSSNPMMVLQLPERCYCADVIYPMAVVATAERGLIVYQLENQPSEFRRIESPLKHQHRCVAIFKDKQNKPTGFALGSIEGRVAIHYINPPNPAKDNFTFKCHRSNGTNTSAPQDIYAVNGIAFHPVHGTLATVGSDGRFSFWDKDARTKLKTSEQLDQPISACCFNHNGNIFAYASSYDWSKGHEFYNPQKKNYIFLRNAAEELKPRNKK | binds | 
NUP50, BiFC fusion (protein, UniProt Q9UKX7 1-468) MAKRNAEKELTDRNWDQEDEAEEVGTFSMASEEVLKNRAIKKAKRRNVGFESDTGGAFKGFKGLVVPSGGGRFSGFGSGAGGKPLEGLSNGNNITSAPPFASAKAAADPKVAFGSLAANGPTTLVDKVSNPKTNGDSQQPSSSGLASSKACVGNAYHKQLAALNCSVRDWIVKHVNTNPLCDLTPIFKDYEKYLANIEQQHGNSGRNSESESNKVAAETQSPSLFGSTKLQQESTFLFHGNKTEDTPDKKMEVASEKKTDPSSLGATSASFNFGKKVDSSVLGSLSSVPLTGFSFSPGNSSLFGKDTTQSKPVSSPFPTKPLEGQAEGDSGECKGGDEEENDEPPKVVVTEVKEEDAFYSKKCKLFYKKDNEFKEKGIGTLHLKPTANQKTQLLVRADTNLGNILLNVLIPPNMPCTRTGKNNVLIVCVPNPPIDEKNATMPVTMLIRVKTSEDADELHKILLEKKDA | binds weakly | 
RPRD1B, BiFC fusion (protein, UniProt Q9NQG5 1-326) MSSFSESALEKKLSELSNSQQSVQTLSLWLIHHRKHAGPIVSVWHRELRKAKSNRKLTFLYLANDVIQNSKRKGPEFTREFESVLVDAFSHVAREADEGCKKPLERLLNIWQERSVYGGEFIQQLKLSMEDSKSPPPKATEEKKSLKRTFQQIQEEEDDDYPGSYSPQDPSAGPLLTEELIKALQDLENAASGDATVRQKIASLPQEVQDVSLLEKITDKEAAERLSKTVDEACLLLAEYNGRLAAELEDRRQLARMLVEYTQNQKDVLSEKEKKLEEYKQKLARVTQVRKELKSHIQSLPDLSLLPNVTGGLAPLPSAGDLFSTD | binds | 
MED26, BiFC fusion (protein, UniProt O95402 1-600) MTAAPASPQQIRDRLLQAIDPQSNIRNMVAVLEVISSLEKYPITKEALEETRLGKLINDVRKKTKNEELAKRAKKLLRSWQKLIEPAHQHEAALRGLAGATGSANGGAHNCRPEVGAAGPPRSIHDLKSRNDLQRLPGQRLDRLGSRKRRGDQRDLGHPGPPPKVSKASHDPLVPNSSPLPTNGISGSPESFASSLDGSGHAGPEGSRLERDENDKHSGKIPVNAVRPHTSSPGLGKPPGPCLQPKASVLQQLDRVDETPGPPHPKGPPRCSFSPRNSRHEGSFARQQSLYAPKGSVPSPSPRPQALDATQVPSPLPLAQPSTPPVRRLELLPSAESPVCWLEQPESHQRLAGPGCKAGLSPAEPLLSRAGFSPDSSKADSDAASSGGSDSKKKKRYRPRDYTVNLDGQVAEAGVKPVRLKERKLTFDPMTRQIKPLTQKEPVRADSPVHMEQQSRTELDKQEAKASLQSPFEQTNWKELSRNEIIQSYLSRQSSLLSSSGAQTPGAHHFMSEYLKQEESTRQGARQLHVLVPQSPPTDLPGLTREVTQDDLDRIQASQWPGVNGCQDTQGNWYDWTQCISLDPHGDDGRLNILPYVCLD | no binding | 
